Results are given in words; binding and its absence hold for the method and conditions named. For part of these data: In cells and extracts the contact can be indirect. Some binding calls cover weakened binding; strength is not graded here. Tags and fused reporters may be left off the sequences shown.
How the values were obtained:
[1] = target: Human Nav 1.5 α subunit with a carboxyl-terminal hemagglutinin (HA) epitope tag (human) (UniProt Q14524); experiment: co-IP; detergent extract (1% Triton X-100) of tsA 201 cells co-transfected with HA-tagged α and Myc-tagged β3; anti-HA agarose, HA peptide elution; anti-Myc immunoblot; 4 °C
[2] = target: Full-length human β3 subunit with a carboxyl-terminal Myc epitope tag (human) (UniProt Q9NY72); experiment: atomic force microscopy (AFM) imaging; Myc-tagged β3 (wild type or C24A) immunoisolated from tsA 201 detergent extract, diluted to ~40 pM, adsorbed to mica, imaged in air in tapping mode; molecular volumes of particles; both purified
[3] = target: Nav channel β3 subunit Ig domain with carboxyl-terminal hexa-His tag (human) (UniProt Q9NY72); experiment: AUC + cross-linking; sedimentation velocity, chemically cross-linked β3 Ig domain at 0.5 mg/ml, 40,000 rpm, 20 °C, interference data; both purified

binding [3] | Binder | binding [1] | binding [2]
 | Full-length human β3 subunit with a carboxyl-terminal Myc epitope tag (protein, UniProt Q9NY72 23-215) FPVCVEVPSETEAVQGNPMKLRCISCMKREEVEATTVVEWFYRPEGGKDFLIYEYRNGHQEVESPFQGRLQWNGSKDLQDVSITVLNVTLNDSGLYTCNVSREFEFEAHRPFVKTTRLIPLRVTEEAGEDFTSVVSEIMMYILLVFLTLWLLIEMIYCYRKVSKAEEAAQENASDYLAIPSENKENSAVPVEE | binds weakly | binds weakly
binds weakly | Nav channel β3 subunit Ig domain with carboxyl-terminal hexa-His tag (domain or fragment, UniProt Q9NY72 25-145, disulfide bonds Cys-2–24 and Cys-21–96) VCVEVPSETEAVQGNPMKLRCISCMKREEVEATTVVEWFYRPEGGKDFLIYEYRNGHQEVESPFQGRLQWNGSKDLQDVSITVLNVTLNDSGLYTCNVSREFEFEAHRPFVKTTRLIPLRV |  | 
